Measurements from publication PMC9849262.
Results are given in words; binding and its absence hold for the method and conditions named. In cells and extracts the contact can be indirect. Some binding calls cover weakened binding; strength is not graded here.

Amino acid sequences for entries named in this document (tags omitted).
UniProt P12813: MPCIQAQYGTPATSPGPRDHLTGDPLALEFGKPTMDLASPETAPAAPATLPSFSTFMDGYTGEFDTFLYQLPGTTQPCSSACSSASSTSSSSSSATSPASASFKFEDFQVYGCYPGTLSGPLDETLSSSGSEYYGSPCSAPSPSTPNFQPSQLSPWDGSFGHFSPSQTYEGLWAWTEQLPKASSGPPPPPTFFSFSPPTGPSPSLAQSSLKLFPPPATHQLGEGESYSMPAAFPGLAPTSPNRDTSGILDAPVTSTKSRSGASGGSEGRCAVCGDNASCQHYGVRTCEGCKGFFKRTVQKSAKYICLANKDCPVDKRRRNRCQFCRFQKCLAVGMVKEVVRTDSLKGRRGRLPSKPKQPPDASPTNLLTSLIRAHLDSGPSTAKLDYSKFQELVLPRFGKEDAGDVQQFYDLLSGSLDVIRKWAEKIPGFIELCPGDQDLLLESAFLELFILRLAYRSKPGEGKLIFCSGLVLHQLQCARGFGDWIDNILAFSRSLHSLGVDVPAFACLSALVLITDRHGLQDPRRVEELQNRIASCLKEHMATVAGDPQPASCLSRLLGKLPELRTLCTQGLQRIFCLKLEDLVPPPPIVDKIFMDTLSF
UniProt O09106: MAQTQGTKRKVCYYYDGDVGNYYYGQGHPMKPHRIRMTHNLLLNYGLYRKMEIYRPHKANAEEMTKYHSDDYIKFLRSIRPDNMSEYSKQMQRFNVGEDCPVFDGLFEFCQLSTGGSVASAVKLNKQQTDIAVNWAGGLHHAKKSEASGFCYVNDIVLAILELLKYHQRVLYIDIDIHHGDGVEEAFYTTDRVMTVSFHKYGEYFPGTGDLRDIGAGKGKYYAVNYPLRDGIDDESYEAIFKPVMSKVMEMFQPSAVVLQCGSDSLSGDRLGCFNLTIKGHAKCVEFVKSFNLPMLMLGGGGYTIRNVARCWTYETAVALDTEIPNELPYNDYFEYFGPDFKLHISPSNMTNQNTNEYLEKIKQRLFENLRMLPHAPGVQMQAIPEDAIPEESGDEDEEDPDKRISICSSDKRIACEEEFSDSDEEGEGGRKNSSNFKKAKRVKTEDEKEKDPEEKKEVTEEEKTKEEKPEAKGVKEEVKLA

Target: Nur77 (NR4A1) (mouse (endogenous in Raw264.7)) (UniProt P12813)
Test: co-IP; Raw264.7 cells (control, H/R, Ad.Null+H/R, Ad.HDAC1+H/R) sonicated in BC300 buffer (20 mM Tris-HCl, 300 mM NaCl, 0.2 mM EDTA, 0.2% Tween-20, 10% glycerol); lysates incubated with anti-Nur77 or acetylated-lysine antibody 24 h at 4 °C, then A/G agarose beads; rabbit IgG as negative control

- binding: binds
Substance: Histone deacetylase 1 (from UniProt O09106 1-482) (enzyme)
